No constants are given. Whether binding was seen depends on the method and setting. In cells and extracts the contact can be indirect. A result given as binding can be weak or reduced; the word gives no strength.
Biological target: FLAG-GafZ (Caulobacter crescentus)
Assay: co-IP; anti-FLAG magnetic beads (μMACS kit) on lysate of stationary-phase C. crescentus ΔrogA cells expressing FLAG-GafZ from its native promoter; lysis buffer 50 mM Tris-HCl pH 8, 150 mM NaCl, 1% Triton X-100, Benzonase; washes with IPP200 (200 mM NaCl, 0.1% NP-40); eluate blotted with anti-GafY, anti-ParB, anti-FLAG

Protein sequences, listed by entry. Tags and fused reporters are not part of them. Lines headed by an entry give the natural chain unless they say otherwise; changes in a name come on top.
UniProt A0A0H3C6I0: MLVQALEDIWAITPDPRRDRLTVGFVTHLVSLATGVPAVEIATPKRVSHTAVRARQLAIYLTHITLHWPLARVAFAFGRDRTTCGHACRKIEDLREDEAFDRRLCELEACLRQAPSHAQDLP

binding | Molecule
binds | GafY (from UniProt A0A0H3C6I0)
no binding | ParB (protein, UniProt B8GW30 1-304) MESVVVGEPGMSEGRRGLGRGLSALLGEVDAAPAQAPGEQLGGSREAPIEILQRNPDQPRRTFREEDLEDLSNSIREKGVLQPILVRPSPDTAGEYQIVAGERRWRAAQRAGLKTVPIMVRELDDLAVLEIGIIENVQRADLNVLEEALSYKVLMEKFERTQENIAQTIGKSRSHVANTMRLLALPDEVQSYLVSGELTAGHARAIAAAADPVALAKQIIEGGLSVRETEALARKAPNLSAGKSKGGRPPRVKDTDTQALESDLSSVLGLDVSIDHRGSTGTLTITYATLEQLDDLCNRLTRGI

From article PMC9632790
